Reference: article PMC7479149
These are yes or no findings as the source states them, for the method shown. In cells and extracts the contact can be indirect. Some entries that bind do so weakly or less than the wild type. Where a sequence is shown, tags or fusion partners need not be part of it.

Sequences of proteins named here, by UniProt entry; tags and fusion partners are left off.
UniProt Q96SW2: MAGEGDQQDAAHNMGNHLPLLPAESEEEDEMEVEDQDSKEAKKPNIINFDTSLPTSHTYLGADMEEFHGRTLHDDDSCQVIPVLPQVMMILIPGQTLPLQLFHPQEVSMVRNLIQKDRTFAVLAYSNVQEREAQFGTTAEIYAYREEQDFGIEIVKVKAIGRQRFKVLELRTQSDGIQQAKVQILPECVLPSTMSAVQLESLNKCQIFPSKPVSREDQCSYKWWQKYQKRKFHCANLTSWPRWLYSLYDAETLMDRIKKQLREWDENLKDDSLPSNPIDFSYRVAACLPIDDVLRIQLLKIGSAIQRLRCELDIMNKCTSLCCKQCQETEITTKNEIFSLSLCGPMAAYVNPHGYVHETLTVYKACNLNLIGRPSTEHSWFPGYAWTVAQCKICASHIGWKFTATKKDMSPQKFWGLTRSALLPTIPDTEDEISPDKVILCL

Molecular target: cereblon (UniProt Q96SW2)
Assay: co-IP; method not told for Fig. 5g; the methods describe only immunoprecipitation and Western blot of cell lysates; compared with and without L-arginine

binding: binds
B1: glucokinase (enzyme, UniProt P35557 16-465)
chain: VEQILAEFQLQEEDLKKVMRRMQKEMDRGLRLETHEEASVKMLPTYVRSTPEGSEVGDFLSLDLGGTNFRVMLVKVGEGEEGQWSVKTKHQMYSIPEDAMTGTAEMLFDYISECISDFLDKHQMKHKKLPLGFTFSFPVRHEDIDKGILLNWTKGFKASGAEGNNVVGLLRDAIKRRGDFEMDVVAMVNDTVATMISCYYEDHQCEVGMIVGTGCNACYMEEMQNVELVEGDEGRMCVNTEWGAFGDSGELDEFLLEYDRLVDESSANPGQQLYEKLIGGKYMGELVRLVLLRLVDENLLFHGEASEQLRTRGAFETRFVSQVESDTGDRKQIYNILSTLGLRPSTTDCDIVRRACESVSTRAAHMCSAGLAGVINRMRESRSEDVMRITVGVDGSVYKLHPSFKERFHASVRRLTPSCEITFIESEEGSGRGAALVSAVACKKACMLGQ
